From PubChem BioAssay AID2685 (National Center for Advancing Translational Sciences (NCATS), 2010)
The campaign covered roughly 320,000 compounds. About 2,100 (0.66%) were called active. Inconclusive means that the source gave no clear call. Such entries were picked first, then a sample of the others. Calls come from the whole dose curve; as a rule, active = well fitted inhibition curve with a large enough effect in the signal ratio, with a control signal flat (not every such curve was filed as active); inconclusive = small, poorly fitted or top-dose-only effect, or effect the other way, or a change in a side signal; inactive = flat fitted curve, though single readings scatter; the % refers to the signal ratio. Where the call is inconclusive, the potency comes from a doubtful curve fit.

experiment: qHTS Assay for Lipid Storage Modulators in Drosophila S3 Cells; conditions: BODIPY lipid droplet fluorescence, 18-24 h, cells fed with added oleic acid; lipid storage change, negative = inhibition: at 46.1 µM (top of the series) unless noted
Summary of the method: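 Laser-scanning cytometry quantifies lipid droplet accumulation (500–530 nm total intensity; droplet/cell object ratio) in oleic acid-fed (400 uM added) Drosophila S3 cells treated with a concentration series. 20 uM Triacsin C defined 100% inhibition.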
% is set by controls: 0 for no effect and ±100 for the full control effect; potency is the fitted concentration of half-maximal effect.

Q: Which lipid storage change, negative = inhibition does the source give for `CCc1c(C)nc2c(Br)cccc2c1SCCC#N` here?
A: inconclusive: 12.2%

Q: With `O=C(CN1C(=O)C2CCCCC2C1=O)Nc1ccc(S(=O)(=O)Nc2ncccn2)cc1` (centres undefined) as the compound, how does the lipid storage change, negative = inhibition read?
A: inconclusive: -6.24%

Q: Which Potency does the source give for `Cc1ccccc1S(=O)(=O)Cc1ccc(C(=O)N2CCN(c3cccc(C)c3C)CC2)o1` here?
A: inconclusive: 6.51 µM [rising, full curve]

Q: With `CCc1ccc(NC(=O)Cn2ncn3c(cc4ccccc43)c2=O)cc1` as the compound, how does the lipid storage change, negative = inhibition read?
A: inconclusive: -2.92%

Q: For `CCOc1ccc(N(Cc2cc3cc(C)ccc3[nH]c2=O)C(=O)COC)cc1`, which lipid storage change, negative = inhibition is on record?
A: inconclusive: -22.9%

Q: Which lipid storage change, negative = inhibition does the source give for `CCOC(=O)CNNC(=O)Nc1ccc(Cl)c(Cl)c1` here?
A: inconclusive: 4%

Q: For `O=C(CCCCCn1c(=O)[nH]c2ccccc2c1=O)NCCc1c[nH]c2ccccc12`, which lipid storage change, negative = inhibition is on record?
A: inconclusive: -13.4%

Q: For `Cc1cc(O)cc(=O)n1Cc1ccco1`, which lipid storage change, negative = inhibition is on record?
A: inconclusive: 10.5%

Q: With `CCN(CC(=O)N1CCOCC1)S(=O)(=O)c1ccc2ccccc2c1` as the compound, how does the lipid storage change, negative = inhibition read?
A: inconclusive: 6.99%

Q: With `CCOC(=O)Cn1nc(C)c(NC(=O)c2ccc(Br)o2)c1C` as the compound, how does the lipid storage change, negative = inhibition read?
A: inconclusive: 230%

Q: Which Potency does the source give for `CC(C)Cn1nc(C(=O)Nc2cccc(S(=O)(=O)N3CCCC3)c2)c2ccccc2c1=O` here?
A: inconclusive: 2.31 µM [activator, partial curve, poor fit]

Q: With `CCCCn1c(SCC(=O)NC2CCS(=O)(=O)C2)nc2cc(S(N)(=O)=O)ccc21` (centres undefined) as the compound, how does the lipid storage change, negative = inhibition read?
A: inconclusive: 39%

Q: Which lipid storage change, negative = inhibition does the source give for `CCOC(=O)CC(NC(=O)c1ccco1)c1ccccc1Cl` (centres undefined) here?
A: inconclusive: -26.7%

Q: For `Cc1ccc(-n2nnc3c(SCC(=O)NCC4CCCO4)ncnc32)cc1` (centres undefined), which lipid storage change, negative = inhibition is on record?
A: inconclusive: 23.4%

Q: Which lipid storage change, negative = inhibition does the source give for `Cc1ccc(C)c(SCC(=O)OCC(=O)NCc2ccccc2)c1` here?
A: inconclusive: -7.15%

Q: With `C(=N\N1CCN(c2ccccn2)CC1)/C1=C(N2CCOCC2)C(=C/c2ccccc2)/CC1` as the compound, how does the lipid storage change, negative = inhibition read?
A: inconclusive: -36.9%

Q: With `Cc1ccc(C[n+]2cccc(-c3ccccc3)c2)c(C)c1` as the compound, how does the lipid storage change, negative = inhibition read?
A: inconclusive: -4.24%

Q: Which lipid storage change, negative = inhibition does the source give for `Cc1nnc(NC(=O)CSc2nc(C(C)C)nc3sc(C)c(C)c23)s1` here?
A: inconclusive: 7.54%

Q: With `CC(C)C/C=C1\CCc2c([nH]c3ccccc23)C1=O` as the compound, how does the lipid storage change, negative = inhibition read?
A: inconclusive: 24.8%

Q: Which lipid storage change, negative = inhibition does the source give for `O=C(c1cccc(Cl)c1)N1CCN(CCCc2ccccc2)CC1` here?
A: inconclusive: -0.52%

Q: For `O=C(c1cc(-c2ccc(Cl)c(Cl)c2)on1)N1CCCC1`, which lipid storage change, negative = inhibition is on record?
A: inconclusive: 12.5%

Q: Which Potency does the source give for `O=[N+]([O-])/C=C/c1cn(Cc2ccccc2)c2ccccc12` here?
A: active: 10.3 µM

Q: Which lipid storage change, negative = inhibition does the source give for `Cc1cc(C(=O)CSc2nc(N)cc(N)n2)c(C)n1-c1cccc(F)c1` here?
A: inconclusive: 20.8%

Q: With `N#Cc1c(NC(=O)c2ccc(Cn3cc(Br)cn3)o2)sc2c1CCCCCC2` as the compound, how does the lipid storage change, negative = inhibition read?
A: inconclusive: -37.4%

Q: With `O=C1c2ccccc2C(=O)N1CCN1CCCCC1` as the compound, how does the Potency read?
A: inconclusive: 29.1 µM [falling, single point]

Q: For `CCOc1ccc(OCC)c(NC(=O)CSc2nc3c(c(=O)n(C)c(=O)n3C)n2C)c1`, which lipid storage change, negative = inhibition is on record?
A: inconclusive: 21.2%

Q: For `CCc1ccc(NC(=O)COC(=O)CCc2nc3cc(S(=O)(=O)N(CC)CC)ccc3n2C)cc1`, which lipid storage change, negative = inhibition is on record?
A: inconclusive: 15.2%

Q: With `CC(=O)NC1C(OC(=O)/C=C/c2ccccc2)OC(COC(C)=O)C(OC(C)=O)C1OC(C)=O` (centres undefined) as the compound, how does the lipid storage change, negative = inhibition read?
A: inconclusive: 3.1%

Q: Which lipid storage change, negative = inhibition does the source give for `CC(C)CN(C(=O)c1ccc(C(F)(F)F)cc1)c1c(N)n(CC(C)C)c(=O)[nH]c1=O` here?
A: inconclusive: -11.8%

Q: For `Cc1nn2c(N3CCCC3)c3c(nc2c1-c1ccccc1)CCC3`, which lipid storage change, negative = inhibition is on record?
A: inconclusive: 19.8%

Q: With `CCCCCn1c(CN2CC(C)OC(C)C2)nc2c1c(=O)n(C)c(=O)n2C` (centres undefined) as the compound, how does the Potency read?
A: inconclusive: 2.06 µM [rising, partial curve]

Q: With `CCOc1cc(CNCC(C)C)cc(Cl)c1OCc1ccccc1` as the compound, how does the lipid storage change, negative = inhibition read?
A: inconclusive: 60.9%

Q: With `Cc1cccc(Oc2ccc(NC(=O)C3=CC=CN4CCS(=O)(=O)N=C34)cc2)c1` as the compound, how does the lipid storage change, negative = inhibition read?
A: inconclusive: 4.72%

Q: Which Potency does the source give for `Cc1ccc(Oc2ccccc2NC(=O)CSCC(=O)Nc2cc(C)on2)cc1` here?
A: inconclusive: 16.4 µM [falling, single point]

Q: With `COc1ccccc1OCC(=O)Nc1ccccc1C(=O)NC1CC1` as the compound, how does the Potency read?
A: inconclusive: 16.4 µM [activator, partial curve, poor fit]

Q: With `O=[N+]([O-])c1cc([N+](=O)[O-])c(Oc2ccc(F)cc2)cc1NN1CCCCC1` as the compound, how does the lipid storage change, negative = inhibition read?
A: inconclusive: -0.162%

Q: For `Cc1ccc(OCC(=O)Nc2ccc(N3CCN(C(=O)c4ccc(C)cc4)CC3)cc2)cc1`, which lipid storage change, negative = inhibition is on record?
A: inconclusive: 29.9%

Q: Which lipid storage change, negative = inhibition does the source give for `Cc1ccccc1N(CC(=O)NC1CCCC1)C(=O)c1oc(C(C)(C)C)cc1C` here?
A: inconclusive: 41.4%

Q: For `Fc1ccc(-c2noc(C3CCN(Cc4cccnc4)CC3)n2)cc1`, which Potency is on record?
A: inconclusive: 20.6 µM [rising, single point]

Q: For `COc1ccc(-n2nc(C(=O)NCC(=O)N3CCC(C)CC3)c3ccccc3c2=O)c(OC)c1`, which lipid storage change, negative = inhibition is on record?
A: inconclusive: 179%

Q: With `Cc1ccc(S(=O)(=O)Nc2cc(S(=O)(=O)N3CCOCC3)ccc2NCC2CCCO2)cc1` (centres undefined) as the compound, how does the lipid storage change, negative = inhibition read?
A: inconclusive: -45.3%

Q: For `COc1ccc(OCC(=O)N/N=c2\oc3c(OC)cccc3cc2C(N)=O)cc1`, which lipid storage change, negative = inhibition is on record?
A: inconclusive: -9.69%

Q: Which lipid storage change, negative = inhibition does the source give for `O=C(CSc1nnc(-c2ccncc2)o1)Nc1cccc(F)c1` here?
A: inconclusive: 5.53%

Q: Which Potency does the source give for `CC(C)(C)c1cc(NC(=O)CCl)n(-c2ccccc2)n1` here?
A: inconclusive: 20.6 µM [falling, partial curve]

Q: With `COc1cccc(C2CC(=O)Nc3cc4c(cc32)OCCO4)c1OC(C)C` (centres undefined) as the compound, how does the lipid storage change, negative = inhibition read?
A: inconclusive: 43.3%

Q: For `Cc1nc(C)c(C(=O)NCc2ccccc2Cl)o1`, which Potency is on record?
A: active: 8.2 µM

Q: For `CCCCC(=O)NC(=S)Nc1cc(C(=O)O)ccc1OC`, which Potency is on record?
A: inconclusive: 0.0052 µM [falling, full curve, poor fit]

Q: For `Cc1cccc(CCNC(=O)C2CCCN(c3cnccn3)C2)c1` (centres undefined), which lipid storage change, negative = inhibition is on record?
A: inconclusive: 37.8%

Q: For `CC(=O)c1ccc(NC(=O)CN2CCN(c3ccccc3)CC2)cc1`, which Potency is on record?
A: inconclusive: 5.8 µM [activator, partial curve]

Q: For `COC(=O)c1ccccc1CSc1nsc(C)c1C#N`, which Potency is on record?
A: active: 9.2 µM

Q: Which lipid storage change, negative = inhibition does the source give for `CC(=O)NC(Cc1cnc[nH]1)C(=O)O` (centres undefined) here?
A: inconclusive: 51.7%

Q: With `CCOC(=O)c1csc(NC(=O)C(C)(C)C)n1` as the compound, how does the lipid storage change, negative = inhibition read?
A: inactive

Q: With `N[C@@H](Cc1ccccc1)c1nnc(SC/C=C/c2ccccc2)o1` as the compound, how does the Potency read?
A: inconclusive: 7.31 µM [rising, partial curve, poor fit]

Q: Which Potency does the source give for `O=C(N/N=C/c1ccco1)c1cc(-c2ccccc2)nc2ccccc12` here?
A: active: 29.1 µM

Q: For `CCCCN(C(=O)CCC(=O)OCC(=O)NCc1ccccc1)c1c(N)n(CCC)c(=O)[nH]c1=O`, which lipid storage change, negative = inhibition is on record?
A: inactive

Q: Which lipid storage change, negative = inhibition does the source give for `Cc1c(C(=O)N2CCN(c3ccc(C(F)(F)F)cn3)CC2)oc2ccccc12` here?
A: inconclusive: 4.32%

Q: Which Potency does the source give for `CCC(=O)c1ccc(OCC(=O)OCC(=O)N2CCc3ccccc32)cc1` here?
A: inconclusive: 0.82 µM [activator, full curve]

Q: For `CC1CC(C)CN(c2ncnc3c2cnn3Cc2ccc(Cl)cc2)C1` (centres undefined), which Potency is on record?
A: inconclusive: 20.6 µM [activator, partial curve]

Q: For `COc1ccc(NC(=O)c2cnn3c(C(F)(F)F)cc(-c4ccco4)nc23)cc1OC`, which lipid storage change, negative = inhibition is on record?
A: inconclusive: -8.78%

Q: With `CCC(C(=O)OCC(=O)Nc1ccc(SC(F)F)cc1)c1ccccc1` (centres undefined) as the compound, how does the Potency read?
A: inconclusive: 23.1 µM [falling, single point]

Q: With `CCN(Cc1ccccc1)C(=O)Cn1c(=O)n(CC(=O)N2CCCCC2)c(=O)c2sccc21` as the compound, how does the lipid storage change, negative = inhibition read?
A: inconclusive: -53.1%

Q: For `Cc1cccnc1NC(=O)C1CCC1`, which Potency is on record?
A: inconclusive: 29.1 µM [activator, single point]

Q: With `N/C(=N\OC(=O)CCCCCN1C(=O)c2ccccc2C1=O)c1ccccn1` as the compound, how does the lipid storage change, negative = inhibition read?
A: inconclusive: -55.2% [at 0.00295 µM]

Q: With `CCCCNC(=O)CCC(=O)NNc1nc2ccccc2c2nc(C)nn12` as the compound, how does the lipid storage change, negative = inhibition read?
A: inconclusive: -10.3%

Q: Which lipid storage change, negative = inhibition does the source give for `Cc1cccc(CCNC(=O)c2cccc(NC3=NC4CS(=O)(=O)CC4S3)c2)c1` (centres undefined) here?
A: inconclusive: 8.46%

Q: For `CCOC(=O)C1=C(COC(=O)CCOc2ccc(OCC)cc2)NC(=O)NC1C` (centres undefined), which Potency is on record?
A: inconclusive: 18.4 µM [activator, single point]

Q: With `CC(C)C1CC(=O)NC(SCC(=O)Nc2ccc(Br)cc2)=C1C#N` (centres undefined) as the compound, how does the lipid storage change, negative = inhibition read?
A: inconclusive: -14.2%

Q: Which lipid storage change, negative = inhibition does the source give for `CCOC(=O)c1cc2c(ccn2C)n1CC(=O)Nc1ccc(F)cc1` here?
A: inconclusive: 35%

Q: Which Potency does the source give for `Cc1c(C(=O)N/N=C/c2ccccc2)[nH]c2c([N+](=O)[O-])cccc12` here?
A: inconclusive: 4.61 µM [falling, single point]

Q: For `O=C(COc1coc(CN2CCc3ccccc3C2)cc1=O)Nc1ccc(F)cc1`, which lipid storage change, negative = inhibition is on record?
A: inconclusive: 15.7%

Q: Which Potency does the source give for `CC(=O)NC1CC2CCC(C1)N2Cc1ccc(C)cc1` (centres undefined) here?
A: inconclusive: 0.82 µM [falling, full curve]

Q: With `COC(=O)CNc1nc(Cl)nc(NC2CCCCC2)n1` as the compound, how does the lipid storage change, negative = inhibition read?
A: inconclusive: -30.4%

Q: Which lipid storage change, negative = inhibition does the source give for `Cc1cccnc1NC(=O)C(c1ccccc1)c1ccccc1` here?
A: inconclusive: 22.9%

Q: Which Potency does the source give for `N#Cc1c(N)nc2c(c1-c1ccc3c(c1)OCO3)CCCCCC2` here?
A: inconclusive: 6.51 µM [activator, partial curve]

Q: Which lipid storage change, negative = inhibition does the source give for `Cn1nc(C(F)(F)F)c(/C=N/OC(=O)c2ccc(Cl)cc2)c1Cl` here?
A: inconclusive: 31.8%

Q: With `CC(C)Cn1c(N)c(-c2nc(C(C)C)c(C(=O)c3ccccc3F)s2)c(=O)n(C)c1=O` as the compound, how does the lipid storage change, negative = inhibition read?
A: inconclusive: 76.7%

Q: For `COc1ccc(COC(=O)C2CCN(S(=O)(=O)c3ccc(OC)c(OC)c3)CC2)cc1`, which lipid storage change, negative = inhibition is on record?
A: inconclusive: 17.6%

Q: Which lipid storage change, negative = inhibition does the source give for `C=CCc1cc(C=O)cc(OCC)c1O` here?
A: inconclusive: 38%

Q: With `CCCN(CCC)S(=O)(=O)c1ccc(C(=O)Nc2c(C)n(C)n(-c3ccccc3)c2=O)cc1` as the compound, how does the Potency read?
A: inconclusive: 0.0046 µM [cytotoxic, full curve, poor fit]
